Consider one sequence from paper PMC8384837.

Holding throughout (settings): yeast three-hybrid, YBZ-1, SC-Leu-His + 0.5 mM 3-AT, 4 days
The target of assay [1] is T1, PUM1 PUF domain R3-AAE C935A + R936A + Q939E (Homo sapiens) (UniProt Q14671).
T1 sequence: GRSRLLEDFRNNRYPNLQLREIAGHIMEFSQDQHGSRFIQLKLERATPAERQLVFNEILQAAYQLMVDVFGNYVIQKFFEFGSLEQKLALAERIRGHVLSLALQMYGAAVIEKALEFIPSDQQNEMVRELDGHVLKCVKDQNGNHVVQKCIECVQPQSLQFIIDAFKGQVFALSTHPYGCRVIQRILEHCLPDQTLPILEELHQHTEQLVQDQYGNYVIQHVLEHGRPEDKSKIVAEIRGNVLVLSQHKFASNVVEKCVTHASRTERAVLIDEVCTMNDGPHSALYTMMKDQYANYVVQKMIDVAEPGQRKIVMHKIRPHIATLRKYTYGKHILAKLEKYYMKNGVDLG

Assay [2] addresses T2, PUM1 PUF domain R3-FRV C935F + Q939V (Homo sapiens) (UniProt Q14671).
T2 sequence: T1 sequence with A108F, A109R, E112V

Assay [3] deals with T3, PUM1 PUF domain R3-GVE C935G + R936V + Q939E (Homo sapiens) (UniProt Q14671).
T3 sequence: T1 sequence with A108G, A109V

Assay [4] addresses T4, PUM1 PUF domain R3-HRS C935H + Q939S (Homo sapiens) (UniProt Q14671).
T4 sequence: T1 sequence with A108H, A109R, E112S

Assay [5] has as its target T5, PUM1 PUF domain R3-LFA C935L + R936F + Q939A (Homo sapiens) (UniProt Q14671).
T5 sequence: T1 sequence with A108L, A109F, E112A

Assay [6] has as its target T6, PUM1 PUF domain R3-LHY C935L + R936H + Q939Y (Homo sapiens) (UniProt Q14671).
T6 sequence: T1 sequence with A108L, A109H, E112Y

Assay [7] concerns the target T7, PUM1 PUF domain R3-LSC C935L + R936S + Q939C (Homo sapiens) (UniProt Q14671).
T7 sequence: T1 sequence with A108L, A109S, E112C

Assay [8] deals with T8, PUM1 PUF domain R3-QRS C935Q + Q939S (Homo sapiens) (UniProt Q14671).
T8 sequence: T1 sequence with A108Q, A109R, E112S

Assay [9] deals with T9, PUM1 PUF domain R3-RAL C935R + R936A + Q939L (Homo sapiens) (UniProt Q14671).
T9 sequence: T1 sequence with A108R, E112L

For assay [10], the target named is T10, PUM1 PUF domain R3-RAP C935R + R936A + Q939P (Homo sapiens) (UniProt Q14671).
T10 sequence: T1 sequence with A108R, E112P

Assay [11] concerns the target T11, PUM1 PUF domain R3-RAT C935R + R936A + Q939T (Homo sapiens) (UniProt Q14671).
T11 sequence: T1 sequence with A108R, E112T

Assay [12] deals with T12, PUM1 PUF domain R3-RAW C935R + R936A + Q939W (Homo sapiens) (UniProt Q14671).
T12 sequence: T1 sequence with A108R, E112W

Assay [13] has as its target T13, PUM1 PUF domain R3-RMR C935R + R936M + Q939R (Homo sapiens) (UniProt Q14671).
T13 sequence: T1 sequence with A108R, A109M, E112R

Assay [14] addresses T14, PUM1 PUF domain R3-RMW C935R + R936M + Q939W (Homo sapiens) (UniProt Q14671).
T14 sequence: T1 sequence with A108R, A109M, E112W

The target of assay [15] is T15, PUM1 PUF domain R3-RPD C935R + R936P + Q939D (Homo sapiens) (UniProt Q14671).
T15 sequence: T1 sequence with A108R, A109P, E112D

Assay [16] has as its target T16, PUM1 PUF domain R3-RRE C935R + Q939E (Homo sapiens) (UniProt Q14671).
T16 sequence: T1 sequence with A108R, A109R

In assay [17] the target is T17, PUM1 PUF domain R3-RST C935R + R936S + Q939T (Homo sapiens) (UniProt Q14671).
T17 sequence: T1 sequence with A108R, A109S, E112T

Assay [18] deals with T18, PUM1 PUF domain R3-RVR C935R + R936V + Q939R (Homo sapiens) (UniProt Q14671).
T18 sequence: T1 sequence with A108R, A109V, E112R

Assay [19] concerns the target T19, PUM1 PUF domain R3-WFS C935W + R936F + Q939S (Homo sapiens) (UniProt Q14671).
T19 sequence: T1 sequence with A108W, A109F, E112S

The target in assay [20] is T20, PUM1 PUF domain R3-YPR C935Y + R936P + Q939R (Homo sapiens) (UniProt Q14671).
T20 sequence: T1 sequence with A108Y, A109P, E112R

Where a chain is given by its changes, count along the chain named. The list shows a part of the results.

Take “GGCUAGAACUAGUGGAUCCCCCGGCGCCCGGCGGCUCGAGCCCGGGUAAGUGUAAAUAGUCUGCAUGCCGCCGGGCGCCAUGCCUGCAGGUCGACUCUAGAAAACAUG”: the binding signal (log2 enrichment (interaction score)) is -2.07 in assay [1]; -2 in assay [2]; -2.79 in assay [3]; -2.37 in assay [4]; -2.71 in assay [5]; -2.2 in assay [6]. Also, the binding signal (log2 enrichment (interaction score)) in assay [7] is -2.13; in assay [8] it was -1.99; in assay [9], -2.33; in assay [10], -2.1; in assay [11], -1.84; in assay [12], -2.92. Also, the binding signal (log2 enrichment (interaction score)) was -2.34 in assay [13]; -2.04 in [14]; -1.74 in assay [15]; -2.06 in assay [16]; -1.76 in assay [17]; -1.77 in assay [18]. The binding signal (log2 enrichment (interaction score)) was -1.74 in assay [19] and -2.2 in [20].
